Here are results for three molecules from PubChem BioAssay AID770 (SRMLSC, 2007).

The list shows a part of the results.

The nature of this assay: HT29 colon tumor cell growth inhibition, primary screen, imaging, high content imaging, 24 h, CellTiter-Glo (AID 770).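 For condensed nuclei: share of cells whose nuclear area falls below control median minus 1.5 SD.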 As to conditions: HT29 cell number by imaging, at 10 µM, stronger effect = higher value; condensed nuclei: measured here: percent cells with condensed nuclei; growth inhibition: measured here: ATP CellTiter-Glo viability. (In general: Cellular ATP, detected with luciferase, serves as a proxy for viable cell number.)
Turning to `CCN(CC)CC(O)COC(=O)C(O)(c1ccccc1)C1CCCCC1` (stereo unspecified), the condensed nuclei was 2.75% and the growth inhibition was 13.8%.

`Cc1ccc(OCC(=O)OC2CN3CCC2CC3)cc1` (stereo unspecified): the condensed nuclei turned out to be 3.51% and the growth inhibition was determined as 4.02%.

As for `Cc1cccc(OCC(=O)OC2CN3CCC2CC3)c1` (stereo unspecified), the condensed nuclei stood at 2.12% and the growth inhibition is -0.56%.
